Measured values from the supplement of paper PMC8866396.
± gives the standard deviation of the averaged measurements. The list shows a part of the results. Most values lie within the scatter of the assay; repeated measurements hardly agree.

System: IL-6-GFP PC-9
Assay: IL-6-GFP fluorescence relative to DMSO control (fraction of control); higher = more IL-6-GFP expression
Details: compound concentration: 10 uM; treatment time: 48 h
Description: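 IL-6-GFP-overexpressing PC-9 and PC-9GR EGFR-mutant lung cancer cells (3000 cells/well, 96-well) were treated for 48 h with each compound of the Selleck L2000 library at 10 uM. IL-6-GFP fluorescence was read on a high-content screening system, and viability by CCK-8 absorbance on a parallel plate set. Each value was normalised as compound well / DMSO control well; two independent replicates.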

| SMILES | IL-6-GFP fluorescence |
| --- | --- |
| O=C(O)COc1nn(Cc2ccccc2)c2ccccc12 [Bendazac] | 0.853 ± 0.13 |
| C=CC(=O)N1CCCC(n2nc(-c3ccc(Oc4ccccc4)cc3)c3c(N)ncnc32)C1 (centres undefined) | 0.457 ± 0.12 |
| CC12C=CC(=O)C=C1CCC1C3CC(O)C(O)(C(=O)CO)C3(C)CC(O)C12F (centres undefined) [Triamcinolone] | 0.932 ± 0.15 |
| Cc1c(N)c(=O)n(-c2ccccc2)n1C [4-Aminoantipyrine] | 0.8907 ± 0.0026 |
| CCCS(=O)(=O)Nc1ccc(F)c(C(=O)c2c[nH]c3ncc(-c4ccc(Cl)cc4)cc23)c1F [Vemurafenib (PLX4032, RG7204)] | 0.901 ± 0.049 |
| Cc1cc2c(C(N)=O)cccc2n1-c1nc2c(c(NCc3ccccc3)n1)COCC2 | 1.11 ± 0.29 |
| CCc1cccc2c3c([nH]c12)C(CC)(CC(=O)O)OCC3 (centres undefined) [Etodolac] | 1.1 ± 0.25 |
| C=CC(=O)Nc1cccc(Oc2nc(Nc3ccc(N4CCN(C)CC4)cc3)nc3ccsc23)c1 | 1 ± 0.13 |
| CC(C)=CCCC(C)(OC1OC(CO)C(O)C(O)C1O)C1CCC2(C)C1C(O)CC1C3(C)CCC(O)C(C)(C)C3C(OC3OC(CO)C(O)C(O)C3O)CC12C (centres undefined) [Ginsenoside Rg1] | 0.902 ± 0.051 |
| CCC1(O)C(=O)OCc2c1cc1n(c2=O)Cc2cc3cc(O)ccc3nc2-1 (centres undefined) [Hydroxy Camptothecine] | 1.82 ± 0.31 |
| Nc1nc(Cl)nc2c1ncn2C1OC(CO)C(O)C1F (centres undefined) [Clofarabine] | 1.01 ± 0.07 |
| CONC(=O)Nc1ccc(-c2sc3c(c2CN(C)C)c(=O)n(-c2ccc(OC)nn2)c(=O)n3Cc2c(F)cccc2F)cc1 [Relugolix] | 0.798 ± 0.019 |
| C=C1C(=O)OC2C1CCC(=C)C1CCC(=C)C12 (centres undefined) [Dehydrocostus Lactone] | 0.767 ± 0.35 |
| Cn1c(=O)cc(N2CCCC(N)C2)n(Cc2ccccc2C#N)c1=O (centres undefined) [Alogliptin(SYK-322)benzoate] | 0.721 ± 0.31 |
| O=C(c1cc(Cc2n[nH]c(=O)c3ccccc23)ccc1F)N1CCN(C(=O)C2CC2)CC1 | 0.963 ± 0.029 |
| CCC(=O)OCC(=O)C1(OC(=O)CC)C(C)CC2C3CCC4=CC(=O)C=CC4(C)C3(Cl)C(O)CC21C (centres undefined) [Beclomethasone dipropionate] | 0.821 ± 0.25 |
| CC(Oc1cc(-c2cnn(C3CCNCC3)c2)cnc1N)c1c(Cl)ccc(F)c1Cl (centres undefined) | 0.983 ± 0.21 |
| COC(c1ccccc1)(c1ccccc1)C(Oc1nc(C)cc(C)n1)C(=O)O (centres undefined) [Ambrisentan] | 0.885 ± 0.34 |
| CC1(C(=O)O)CCC2(C)CCC3(C)C(=CC(=O)C4C5(C)CCC(OC6OC(C(=O)O)C(O)C(O)C6OC6OC(C(=O)O)C(O)C(O)C6O)C(C)(C)C5CCC43C)C2C1.N.N (centres undefined) [Diammonium Glycyrrhizinate] | 0.985 ± 0.44 |
| CC(C)(C#N)c1cc(Cn2cncn2)cc(C(C)(C)C#N)c1 [Anastrozole] | 0.888 ± 0.097 |
| O=c1[nH]cc(F)c(=O)[nH]1 [Fluorouracil (5-Fluoracil, 5-FU)] | 0.908 ± 0.058 |
| COc1cccc2c1C(=O)c1c(O)c3c(c(O)c1C2=O)CC(O)(C(=O)CO)CC3OC1CC(N)C(OC2CCCCO2)C(C)O1 (centres undefined) [Pirarubicin] | 0.863 ± 0.066 |
| C=CC(=O)Nc1cc(Nc2nccc(-c3cn(C)c4ccccc34)n2)c(OC)cc1N(C)CCN(C)C.CS(=O)(=O)O [Osimertinib mesylate] | 1.18 ± 0.085 |
| NC(CO)(CO)CO.O=C(c1ccccc1)c1ccc2n1CCC2C(=O)O (centres undefined) [Ketorolac tromethamine salt] | 0.685 ± 0.12 |
| Cc1c(-c2ccc(-c3ccccc3F)cc2)nc2ccc(F)cc2c1C(=O)O [Brequinar] | 0.745 ± 0.53 |
| C=CC1=C(C)c2cc3nc(cc4[nH]c(cc5[nH]c(cc1n2)c(C)c5C=C)c(C)c4CCC(=O)O)C(CCC(=O)O)=C3C [Protoporphyrin IX] | 0.534 ± 0.16 |
| Cc1cccc(N(C)C(=S)Oc2ccc3ccccc3c2)c1 [Tolnaftate] | 0.817 ± 0.21 |
| CS(=O)(=O)c1ccc(C(=O)Nc2ccc(Cl)c(-c3ccccn3)c2)c(Cl)c1 [Vismodegib (GDC-0449)] | 0.931 ± 0.1 |
| O=C(Nc1cnn2ccc(N3CCCC3c3cc(F)ccc3F)nc12)N1CCC(O)C1.O=S(=O)(O)O (centres undefined) [Larotrectinib (LOXO-101) sulfate] | 0.665 ± 0.37 |

Given bar-delimited: entries from further up
SMILES | IL-6-GFP fluorescence
CC12C=CC(=O)C=C1CCC1C3CC(O)C(O)(C(=O)CO)C3(C)CC(O)C12F (centres undefined) [Triamcinolone] | 0.932 ± 0.15
Cc1c(N)c(=O)n(-c2ccccc2)n1C [4-Aminoantipyrine] | 0.8907 ± 0.0026
